Source: PubChem BioAssay (NCATS)
Inconclusive results, whose numbers are uncertain, are shown with a selection of clear calls. For part of these data: A potency beside an inconclusive call is a rough fit, not a confirmed value. Calls of active or inactive are those of the source. Calls follow the shape of the dose curve; as a rule, active = well fitted curve in the direction sought with a large enough effect; inconclusive = small, poorly fitted or top-dose-only effect, or another doubt; inactive = no such curve, though single readings can be large; an effect the other way counts as inactive or inconclusive.

Assays:
[1] = Quantitative High-Throughput drug screen in 47 multiple myeloma cell lines against the NCATS MIPE library collection: KMS20_JCRB cell viability assay (AID 1918973); conditions: CellTiter-Glo ATP, 48 h; viability (% of DMSO): at 45.8 µM (top of the series); also: nearly all actives have a fitted effect of over 45% in size;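 as to viability (% of DMSO): 100% = DMSO only wells and 0% = media only wells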
How it was run: (§1)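 Primary qHTS used for cherry-picking: cells at 500/well, library compounds for 48 h (37C, 5% CO2), luminescent ATP assay.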

[2] = Quantitative High-Throughput drug screen in 47 multiple myeloma cell lines against the NCATS MIPE library collection: KMS21BM_JCRB cell viability assay (AID 1918974); conditions: ATP luminescence, 48 h; viability: at 45.8 µM (top of the series) unless noted
How it was run: as §1

[3] = Quantitative High-Throughput drug screen in 47 multiple myeloma cell lines against the NCATS MIPE library collection: MMM1_PLB cell viability assay (AID 1918976); conditions: MMM1 myeloma cells viability, CellTiter-Glo, 48 h; series mostly up to 45.8 µM; also: nearly all actives have a fitted effect of over 35% in size
How it was run: (§2)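 Cells were exposed to library compounds for 48 hours, after which ATP was measured by CellTiter-Glo. Signal was taken as median relative luminescence units.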

[4] = Quantitative High-Throughput drug screen in 47 multiple myeloma cell lines against the NCATS MIPE library collection: MOLP8_DSMZ cell viability assay (AID 1918977); conditions: MOLP8 myeloma viability, CellTiter-Glo ATP luminescence, 48 h; viability (% of control): at 45.8 µM (top of the series); also: nearly all actives have a fitted effect of over 45% in size
How it was run: as §2

[5] = Quantitative High-Throughput drug screen in 47 multiple myeloma cell lines against the NCATS MIPE library collection: OCIMY1_PLB cell viability assay (AID 1918979); conditions: OCI-MY1 myeloma viability, CellTiter-Glo ATP, 48 h; viability: at 45.8 µM (top of the series) unless noted; also: nearly all actives have a fitted effect of over 35% in size;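 as to viability: 100% = DMSO-only wells and 0% = cell-free media-only wells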
How it was run: as §2

[6] = Quantitative High-Throughput drug screen in 47 multiple myeloma cell lines against the NCATS MIPE library collection: MM1S_ATCC cell viability assay (AID 1918980); conditions: MM1S myeloma viability, CellTiter-Glo ATP luminescence, 48 h; series mostly up to 45.8 µM; also: nearly all actives have a fitted effect of over 45% in size;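 as to viability (% of control): 100% = wells with DMSO only and 0% = wells with media only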
How it was run: as §2

[7] = Quantitative High-Throughput drug screen in 47 multiple myeloma cell lines against the NCATS MIPE library collection: LP1_DSMZ cell viability assay (AID 1918982); conditions: LP1 myeloma viability, CellTiter-Glo ATP luminescence, 48 h; viability (% of control): at 45.8 µM (top of the series); also: nearly all actives have a fitted effect of over 35% in size
How it was run: as §2

[8] = Quantitative High-Throughput drug screen in 47 multiple myeloma cell lines against the NCATS MIPE library collection: KMS28PE_JCRB cell viability assay (AID 1918983); conditions: KMS28PE multiple myeloma viability, CellTiter-Glo ATP, 48 h; series mostly up to 45.8 µM; also: nearly all actives have a fitted effect of over 35% in size
How it was run: as §2

[9] = Quantitative High-Throughput drug screen in 47 multiple myeloma cell lines against the NCATS MIPE library collection: L363_DSMZ cell viability assay (AID 1918984); conditions: L363 myeloma viability, CellTiter-Glo ATP luminescence, 48 h; viability (% of control): at 45.8 µM (top of the series); also: nearly all actives have a fitted effect of over 40% in size
How it was run: as §2

[10] = Quantitative High-Throughput drug screen in 47 multiple myeloma cell lines against the NCATS MIPE library collection: KMS34_JCRB cell viability assay (AID 1918985); conditions: KMS34 myeloma viability, CellTiter-Glo ATP luminescence, 48 h; viability, percent of control: at 45.8 µM (top of the series); also: nearly all actives have a fitted effect of over 40% in size;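 as to viability, percent of control: 100% = DMSO-only wells and 0% = media-only wells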
How it was run: as §2

[11] = Quantitative High-Throughput drug screen in 47 multiple myeloma cell lines against the NCATS MIPE library collection: OCIMY7_PLB cell viability assay (AID 1918987); conditions: OCI-MY7 myeloma viability, CellTiter-Glo ATP, 48 h; viability (% of DMSO): at 45.8 µM (top of the series); also: nearly all actives have a fitted effect of over 65% in size
How it was run: as §2

[12] = Quantitative High-Throughput drug screen in 47 multiple myeloma cell lines against the NCATS MIPE library collection: OCIMY5_PLB cell viability assay (AID 1918988); conditions: OCI-MY5 myeloma viability, ATP luminescence, 48 h; viability, % of control: at 45.8 µM (top of the series); also: nearly all actives have a fitted effect of over 65% in size;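 as to viability, % of control: 100% = DMSO-treated wells and 0% = wells with media alone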
How it was run: as §2

[13] = Quantitative High-Throughput drug screen in 47 multiple myeloma cell lines against the NCATS MIPE library collection: SKMM1_PLB cell viability assay (AID 1919863); conditions: SKMM1 myeloma viability, CellTiter-Glo ATP, 48 h; viability: stronger effect = lower value; also: nearly all actives have a fitted effect of over 35% in size
How it was run: as §2

[14] = Quantitative High-Throughput drug screen in 47 multiple myeloma cell lines against the NCATS MIPE library collection: U266_ATCC cell viability assay (AID 1919864); conditions: U266 myeloma viability, CellTiter-Glo ATP luminescence, 48 h; viability (% of DMSO control): at 45.8 µM (top of the series); also: nearly all actives have a fitted effect of over 35% in size;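 as to viability (% of DMSO control): 0% = media-only wells without cells and 100% = DMSO-only wells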
How it was run: as §2

[15] = Quantitative High-Throughput drug screen in 47 multiple myeloma cell lines against the NCATS MIPE library collection: XG1_PLB cell viability assay (AID 1919866); conditions: CellTiter-Glo ATP, 48 h; viability: at 45.8 µM (top of the series); also: nearly all actives have a fitted effect of over 35% in size
How it was run: as §2

[16] = Quantitative High-Throughput drug screen in 47 multiple myeloma cell lines against the NCATS MIPE library collection: OPM1_PLB cell viability assay (AID 1918989); conditions: CellTiter-Glo, 48 h; series mostly up to 45.8 µM; also: nearly all actives have a fitted effect of over 40% in size;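 as to viability (% of control): 100% = DMSO-only wells and 0% = media-only wells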
How it was run: as §2

[17] = Quantitative High-Throughput drug screen in 47 multiple myeloma cell lines against the NCATS MIPE library collection: MM1R_ATCC cell viability assay (AID 1918981); conditions: MM1R multiple myeloma cells, CellTiter-Glo viability, 48 h; series mostly up to 45.8 µM; also: nearly all actives have a fitted effect of over 35% in size
How it was run: as §2

[18] = Quantitative High-Throughput drug screen in 47 multiple myeloma cell lines against the NCATS MIPE library collection: NCIH929_DSMZ cell viability assay (AID 1918978); conditions: NCI-H929 myeloma viability, CellTiter-Glo ATP, 48 h; series mostly up to 45.8 µM; also: nearly all actives have a fitted effect of over 35% in size
How it was run: as §2

[19] = Quantitative High-Throughput drug screen in 47 multiple myeloma cell lines against the NCATS MIPE library collection: XG6_PLB cell viability assay (AID 1919865); conditions: XG6 myeloma viability, CellTiter-Glo ATP luminescence, 48 h; viability (% of control): at 45.8 µM (top of the series); also: nearly all actives have a fitted effect of over 40% in size
How it was run: as §2
Potency is read from the fitted curve at half-maximal effect.

O=C(CN1C(=O)C2(CCCC2)NC[C@H]1c1cc(F)cc(F)c1)Nc1ccc2c(c1)C[C@@]1(C2)C(=O)Nc2ncccc21
inactive: Potency [6] | Potency [7] | Potency [9] | Potency [10] | Potency [12] | viability [13] 120%
inconclusive: Potency [1] 3.72 µM [rising, partial curve, poor fit] | Potency [2] 37200 nM [cytotoxic, single point] | Potency [3] 0.0132 µM [rising, full curve] | Potency [4] 0.0132 µM [rising, full curve, poor fit] | Potency [5] 11.8 µM [rising, single point] | Potency [8] 0.003 µM [rising, full curve, poor fit] | Potency [11] 46.9 nM [rising, full curve, poor fit]

COC(=O)Nc1nc2ccc(C(=O)c3ccccc3)cc2[nH]1
active: Potency [1] 1.32 µM | Potency [7] 1.87 µM | Potency [13] 0.332 µM | Potency [14] 14.8 µM | Potency [15] 332 nM
inconclusive: Potency [2] 1870 nM [cytotoxic, full curve, poor fit] | Potency [3] 10.5 µM [cytotoxic, partial curve, poor fit] | Potency [4] 1.48 µM [cytotoxic, full curve] | Potency [9] 332 nM [cytotoxic, full curve, poor fit]

Nc1ccccc1NC(=O)c1ccc(CNc2nccc(-c3cccnc3)n2)cc1
inconclusive: Potency [3] 14.8 µM [cytotoxic, partial curve, poor fit]
active: Potency [1] 0.743 µM | Potency [2] 662 nM | Potency [4] 1.18 µM | Potency [9] 1180 nM

CC(C)[C@H](O)C(=O)N[C@@H](C)C(=O)N[C@@H]1C(=O)N(C)CCc2ccccc21
inconclusive: Potency [2] 26400 nM [rising, partial curve] | Potency [6] 37.2 µM [cytotoxic, single point] | Potency [8] 1.48 µM [cytotoxic, partial curve, poor fit] | Potency [11] 662 nM [cytotoxic, full curve, poor fit] | Potency [13] 0.166 µM [cytotoxic, full curve, poor fit] | Potency [15] 18700 nM [cytotoxic, partial curve]
inactive: Potency [1] | Potency [5] | Potency [9] | Potency [12] | Potency [16] | Potency [14]
active: Potency [3] 23.5 µM | Potency [4] 0.0053 µM

COc1cc2c(cc1OC)[C@@H]1C(=O)c3ccc4c(c3O[C@@H]1CO2)C=CC(C)(C)O4
active: Potency [1] 6.62 µM | Potency [2] 66.2 nM | Potency [3] 0.0187 µM | Potency [4] 11.8 µM | Potency [9] 26.4 nM | Potency [12] 148 nM
inconclusive: Potency [5] 6.62 µM [cytotoxic, partial curve] | Potency [17] 1.66 µM [cytotoxic, partial curve] | Potency [14] 0.132 µM [cytotoxic, full curve]

Part of the list above in order of heavy-atom count, low to high.
COc1cc2c(cc1OC)[C@@H]1C(=O)c3ccc4c(c3O[C@@H]1CO2)C=CC(C)(C)O4
active: Potency [1] 6.62 µM | Potency [2] 66.2 nM | Potency [3] 0.0187 µM | Potency [4] 11.8 µM | Potency [9] 26.4 nM | Potency [12] 148 nM
inconclusive: Potency [5] 6.62 µM [cytotoxic, partial curve] | Potency [17] 1.66 µM [cytotoxic, partial curve] | Potency [14] 0.132 µM [cytotoxic, full curve]

Nc1ccccc1NC(=O)c1ccc(CNc2nccc(-c3cccnc3)n2)cc1
inconclusive: Potency [3] 14.8 µM [cytotoxic, partial curve, poor fit]
active: Potency [1] 0.743 µM | Potency [2] 662 nM | Potency [4] 1.18 µM | Potency [9] 1180 nM

O=C(CN1C(=O)C2(CCCC2)NC[C@H]1c1cc(F)cc(F)c1)Nc1ccc2c(c1)C[C@@]1(C2)C(=O)Nc2ncccc21
inactive: Potency [6] | Potency [7] | Potency [9] | Potency [10] | Potency [12] | viability [13] 120%
inconclusive: Potency [1] 3.72 µM [rising, partial curve, poor fit] | Potency [2] 37200 nM [cytotoxic, single point] | Potency [3] 0.0132 µM [rising, full curve] | Potency [4] 0.0132 µM [rising, full curve, poor fit] | Potency [5] 11.8 µM [rising, single point] | Potency [8] 0.003 µM [rising, full curve, poor fit] | Potency [11] 46.9 nM [rising, full curve, poor fit]

(cont.)

COc1cc(-c2nn(C3CCC(N4CCN(C(C)=O)CC4)CC3)c3ncnc(N)c23)ccc1NC(=O)c1cc2ccccc2n1C (centres undefined)
active: Potency [4] 10.5 µM | Potency [6] 5.9 µM | Potency [17] 5.9 µM | Potency [8] 14.8 µM | Potency [10] 6.62 µM | Potency [16] 2.64 µM | Potency [13] 14.8 µM | Potency [15] 332 nM
inconclusive: Potency [1] 0.0148 µM [cytotoxic, full curve, poor fit] | Potency [2] 332 nM [cytotoxic, full curve, poor fit] | Potency [18] 5.9 µM [cytotoxic, partial curve] | Potency [7] 10.5 µM [cytotoxic, partial curve] | Potency [9] 264 nM [cytotoxic, full curve] | Potency [11] 16600 nM [cytotoxic, partial curve, poor fit] | Potency [14] 18.7 µM [cytotoxic, partial curve, poor fit]

COc1cc(NCc2ccc3nc(N)nc(N)c3c2C)cc(OC)c1OC
active: Potency [1] 7.43 µM | Potency [3] 8.33 µM | Potency [7] 1.48 µM | Potency [8] 14.8 µM | Potency [9] 935 nM | Potency [13] 11.8 µM | Potency [14] 1.48 µM
inconclusive: viability [2] 6.66% [cytotoxic]

Nc1nc(=S)c2[nH]cnc2[nH]1
inconclusive: Potency [2] 13.2 nM [rising, full curve, poor fit] | Potency [3] 16.6 µM [cytotoxic, partial curve] | Potency [17] 3.32 µM [cytotoxic, full curve] | Potency [9] 118 nM [cytotoxic, full curve, poor fit]
active: Potency [1] 1.32 µM | Potency [4] 3.32 µM | Potency [7] 7.43 µM | Potency [10] 2.96 µM | Potency [13] 5.9 µM | Potency [14] 8.33 µM | Potency [19] 1.05 µM
